Data: publication PMC9844606
These are yes or no findings as the source states them, for the method shown. Binding seen in cells or lysates may run through a third protein. Some binding calls cover weakened binding; strength is not graded here.

Amino acid sequences for entries named in this document (tags omitted).
UniProt Q99929: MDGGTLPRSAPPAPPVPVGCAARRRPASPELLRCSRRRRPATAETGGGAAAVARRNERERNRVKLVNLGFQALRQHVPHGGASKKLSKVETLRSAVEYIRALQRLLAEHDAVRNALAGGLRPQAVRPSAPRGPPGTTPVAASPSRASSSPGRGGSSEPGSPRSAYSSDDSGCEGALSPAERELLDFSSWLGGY

Target: Achaete scute-like 2 (ASCL2) (human (endogenous in HCT116 and SW620)) (UniProt Q99929)
Experiment: co-IP; reciprocal co-IP from HCT116 and SW620 cell lysates; DPEP1 or ASCL2 primary antibody 4 h at 4°C, protein A/G-agarose beads overnight at 4°C, three washes, western blotting

- binding: binds
B1: Dipeptidase 1 (DPEP1) (protein, UniProt P16444 17-385)
chain: DFFRDEAERIMRDSPVIDGHNDLPWQLLDMFNNRLQDERANLTTLAGTHTNIPKLRAGFVGGQFWSVYTPCDTQNKDAVRRTLEQMDVVHRMCRMYPETFLYVTSSAGIRQAFREGKVASLIGVEGGHSIDSSLGVLRALYQLGMRYLTLTHSCNTPWADNWLVDTGDSEPQSQGLSPFGQRVVKELNRLGVLIDLAHVSVATMKATLQLSRAPVIFSHSSAYSVCASRRNVPDDVLRLVKQTDSLVMVNFYNNYISCTNKANLSQVADHLDHIKEVAGARAVGFGGDFDGVPRVPEGLEDVSKYPDLIAELLRRNWTEAEVKGALADNLLRVFEAVEQASNLTQAPEEEPIPLDQLGGSCRTHYGYSS
